Source: publication PMC3911142
Numbering of substitutions follows the chain as printed. For at least one entry, the source does not settle the construct or the ends of the probe. A negative result means that nothing was seen under these conditions. Tags and fusion partners may be left off the protein sequences shown.

Chains of the proteins cited; added tags and fusions are not shown. Lines headed by an entry give the natural chain unless they say otherwise; changes in a name come on top.
UniProt P13800: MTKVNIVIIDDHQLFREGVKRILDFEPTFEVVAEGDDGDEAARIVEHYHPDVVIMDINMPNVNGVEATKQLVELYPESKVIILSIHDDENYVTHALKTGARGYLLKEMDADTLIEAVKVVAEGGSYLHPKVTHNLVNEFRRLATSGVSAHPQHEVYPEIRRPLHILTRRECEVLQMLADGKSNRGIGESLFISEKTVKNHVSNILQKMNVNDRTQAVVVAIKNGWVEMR

Assays:
[1] = biological target: T1, DegU32(Hy)~P H12L (Bacillus subtilis) (UniProt P13800); experiment: EMSA; conditions: phosphorylated; 1 ng 32P-labelled DNA per lane; recombinant protein; label: 32P (T4 PNK); probe letters rebuilt from the primers and the genome
T1 sequence (looked up, limits assumed): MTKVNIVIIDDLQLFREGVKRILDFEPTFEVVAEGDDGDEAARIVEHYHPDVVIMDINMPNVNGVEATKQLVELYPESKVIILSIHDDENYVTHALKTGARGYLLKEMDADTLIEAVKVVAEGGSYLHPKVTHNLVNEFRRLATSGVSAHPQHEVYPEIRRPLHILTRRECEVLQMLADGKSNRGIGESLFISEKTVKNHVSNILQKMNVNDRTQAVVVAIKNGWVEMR

[2] = biological target: T2, DegU~P-His6 (Bacillus subtilis) (UniProt P13800); experiment: EMSA; conditions: DegU phosphorylated by DegS, 1 ng 32P-labelled DNA per lane, recombinant protein, protein details: His6, label: 32P (T4 PNK), probe letters rebuilt from the primers and the genome
T2 sequence (looked up, limits assumed): T1 sequence (looked up, limits assumed) with L12H

Sequence: GCCAGAATTCGGATCCATTCATAGCCTTCAGCCTTCCCGCGGCTGGCTTCCCGCGCCCCTTTCTGTTAATGATTGGATTATAAAAGAAAACGTTATTATTTAAAAATTGCAAAATAAGCCAATAAGTTCTCTTTAGAGAACAAAATCATGATTTTCCTCTAATTTACTGCACTTCCCTTATTATTTTAAATTTTATAAAGAACGAAAAATTCCTTATAATGAACGAAATAACGACAGGAATAGAGGAGAATTTCATATTATGATTGGAAGAATTATCCGTTTGTACCGTAAAAGAAAAGGCTATTCTATTAATCAGCTGGCTGTTGAGTCAGGCGTATCCAAATCCTATTTAAGCAAGATTGAAAGAGGCGTTCACACGAATCCGTCCGTTCAATTTTTAAAAAAAGTTTCTGCCACACTGGAAGTTGAATTAACAGAATTATTTGACGCAGAAACAATGATGTATGAAAAAATCAGCGGCGGTGAAGAAGAATGGCGCGTACATTTAGTGCAAGCCGTACAGAATTCTCCA (double strand) [epsA promoter region]
- binding result [1]: no binding
- binding result [2]: no binding

Sequence: GGTAAAGCCTATGAATTCTCCATTTTCTTCTGCTATCAAAATAACAGACTCGTGATTTTCCAAACGAGCTTTCAAAAAAGCCTCTGCCCCTTGCAAATCGGATGCCTGTCTATAAAATTCCCGATATTGGTTAAACAGCGGCGCAATGGCGGCCGCATCTGATGTCTTTGCTTGGCGAATGTTCATCTTATTTCTTCCTCCCTCTCAATAATTTTTTCATTCTATCCCTTTTCTGTAAAGTTTATTTTTCAGAATACTTTTATCATCATGCTTTGAAAAAATATCACGATAATATCCATTGTTCTCACGGAAGCACACGCAGGTCATTTGAACGAATTTTTTCGACAGGAATTTGCCGGGACTCAGGAGCATTTAACCTAAAAAAGCATGACATTTCAGCATAATGAACATTTACTCATGTCTATTTTCGTTCTTTTCTGTATGAAAATAGTTATTTCGAGTCTCTACGGAAATAGCGAGAGATGATATACCTAAATAGAGATAAAATCATCTCAAAAAAATGGGTCTACTAAAATATTATTCCATCTATTACAATAAATTCACAGAATAGTCTTTTAAGTAAGTCTACTCTGAATTTTTTTAAAAGGAGAGGGTAAAGAGTGAGAAGCAAAAAATTGTGGATCAAGCTTAGAC (double strand) [aprE promoter region]
- binding result ([2]; positive control): binds

Sequence: TGGCGAATTCATAGACAAATCACACATTGTTTGATCATCATGCTGTCACCCTTTCTTTGTTTATTATTACCAAATAATAATGGGATATGCATTTAAATTCTCACATAACAATCCCAAAAATTTCTAAAAAATTGAAAAAATGAGCAATACTGAGCAAGACTTTGTAATATGATGAAAACATTCTTTTAAACGAACAAAATGAGCGATTTCGGTGTTTTTAAATCTATAAATCGTTGATTATACTCTATTTGTGAAGTTCTTTAAAGAGAACGATTGTCATATCAAGTTACAGTGTTTTACAGGAGGTAAGATGGATCCGAATTCTGGC (double strand) [tapA promoter region]
- binding result [1]: no binding
- binding result [2]: no binding
